In article doi:10.1101/277269:
No constants are given. Whether binding was seen depends on the method and setting. In cells and extracts the contact can be indirect. Some entries that bind do so weakly or less than the wild type. Where a sequence is shown, tags or fusion partners need not be part of it.

Target: T1, Cluc-AtRAR1 (Arabidopsis thaliana) (UniProt Q9SE33)
T1 sequence: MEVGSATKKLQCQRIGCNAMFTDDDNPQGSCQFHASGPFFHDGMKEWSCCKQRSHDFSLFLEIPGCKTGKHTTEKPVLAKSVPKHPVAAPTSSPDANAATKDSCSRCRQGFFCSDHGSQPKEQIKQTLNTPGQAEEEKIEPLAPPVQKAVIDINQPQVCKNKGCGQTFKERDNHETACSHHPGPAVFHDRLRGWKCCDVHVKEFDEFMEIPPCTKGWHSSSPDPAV
Assay: split reporter

B1: AtSGT1b-Nluc (protein, UniProt Q9SUT5 1-358)
chain: MAKELAEKAKEAFLDDDFDVAVDLYSKAIDLDPNCAAFFADRAQANIKIDNFTEAVVDANKAIELEPTLAKAYLRKGTACMKLEEYSTAKAALEKGASVAPNEPKFKKMIDECDLRIAEEEKDLVQPMPPSLPSSSTTPLATEADAPPVPIPAAPAKPMFRHEFYQKPEEAVVTIFAKKVPKENVTVEFGEQILSVVIDVAGEEAYHLQPRLFGKIIPEKCRFEVLSTKVEIRLAKAEIITWASLEYGKGQSVLPKPNVSSALSQRPVYPSSKPAKDWDKLEAEVKKQEKDEKLDGDAAMNKFFSDIYSSADEDMRRAMNKSFAESNGTVLSTNWKEVGTKKVESTPPDGMELKKWEY
  binding: binds
